Assay results published in PubChem BioAssay AID206 (DTP/NCI, 2004).
The list is a part of this screen's results and no random one: it gathers tests that were run many times, whatever their T/C, doses with no T/C, and many T/C values between a quarter and a half above the control. Other doses and runs of a compound stand elsewhere. T/C gives the treated animals as a percentage of the vehicle group. Schedule codes are those of the source, read here as Q, the interval in days (D) or hours (H), X, the number of doses. Some T/C values are followed by the survivors on the day toxicity was checked, most often the fifth; without a count, all were alive then. Some doses have a count of surviving animals in place of a T/C: the source holds a T/C of zero for them, seemingly a mark for toxic or unscored doses. Survivors were counted at the toxicity check, usually on the fifth day, unless a day is given; later deaths do not show. Some entries hold several experiments; the results are listed from low to high.

Tested on: nude mice, HT29 intrarenal xenograft, tumor weight T/C
Assay: NCI In Vivo Anticancer Drug Screen. Data for tumor model HT29;CX-1 Human Adenocarcinoma (MER+) (intrarenal inoculation) in NU/NU Swiss (nude) mice
Conditions: T/C endpoint: mean tumor weight change, higher T/C = larger tumour
Procedure, shortened: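 Mice with transplanted tumors are dosed with compound while controls get vehicle only. Survival or tumor burden is then assessed per group, and the treated value is expressed relative to control.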

[1] = dose: 75.0 mg/kg/injection, schedule: Q04DX004 (sc), vehicle: saline with Tween-80
[2] = dose: 150.0 mg/kg/injection, schedule: Q04DX004 (sc), vehicle: saline with Tween-80
[3] = dose: 300.0 mg/kg/injection, schedule: Q04DX004 (sc), vehicle: saline with Tween-80
[4] = dose: 600.0 mg/kg/injection, schedule: Q04DX004 (sc), vehicle: saline with Tween-80
[5] = dose: 400.0 mg/kg/injection, schedule: Q04DX004 (sc), vehicle: saline with Tween-80
[6] = dose: 100.0 mg/kg/injection, schedule: Q01DX010 (sc), vehicle: saline
[7] = dose: 50.0 mg/kg/injection, schedule: Q01DX010 (sc), vehicle: saline
[8] = dose: 200.0 mg/kg/injection, schedule: Q01DX010 (sc), vehicle: saline
[9] = dose: 400.0 mg/kg/injection, schedule: Q01DX010 (sc), vehicle: saline
[10] = dose: 25.0 mg/kg/injection, schedule: Q01DX010 (sc), vehicle: saline

Compound: CCNC(=O)OCc1c(COC(=O)NCC)c(-c2ccc(Cl)c(Cl)c2)n2c1CCC2
- survivor count [1]: 3 of 6 on day 15
- survivor count [2]: 1 of 6 on day 15 and 2 of 6 on day 15
- survivor count [3]: 1 of 6 on day 15 and 3 of 6 on day 15

Compound: O=S(=O)(SC(S(=O)(=O)c1ccccc1)S(=O)(=O)c1ccccc1)c1ccccc1
- survivor count (dose: 800.0 mg/kg/injection, schedule: Q04DX004 (sc), vehicle: Klucel (hydroxypropylcellulose) (HPC)): 1 of 6 on day 15

Compound: CS(=O)(=O)c1ncc(Br)cn1
- survivor count [4]: 0 of 6 on day 15

Compound: S=C(Nc1ccc(Cl)c(Cl)c1)N1c2ccccc2-n2cccc2C1c1cccnc1 (configuration not stated)
- T/C (dose: 1600.0 mg/kg/injection, schedule: Q04DX004 (sc), vehicle: Klucel (hydroxypropylcellulose) (HPC), evaluated on day 15): 147 % of control

Compound: CCC1(O)CC2CN(CCc3c([nH]c4ccccc34)C(C(=O)OC)(c3cc4c(cc3OC)N(C)C3C(O)(C(N)=O)C(O)C5(CC)C=CCN6CCC43C65)C2)C1 (configuration not stated) (tested in a mixture with another compound)
- survivor count (dose: 12.0 mg/kg/injection, schedule: Q04DX004 (sc), vehicle: water): 1 of 6 on day 15 and 3 of 6 on day 15
- survivor count (dose: 24.0 mg/kg/injection, schedule: Q04DX004 (sc), vehicle: water): 0 of 6 on day 15

Compound: O=C(NO)c1ccc(O)c(O)c1
- T/C (dose: 800.0 mg/kg/injection, schedule: Q04DX004 (sc), vehicle: water, evaluated on day 15): 126 % of control
- survivor count (dose: 1600.0 mg/kg/injection, schedule: Q04DX004 (sc), vehicle: water): 0 of 4 on day 15

Compound: COc1cc(Cc2nccc3cc(OC)c(OC)cc23)c(C(C)=O)c(OC)c1
- survivor count (dose: 320.0 mg/kg/injection, schedule: Q01DX010 (sc), vehicle: saline): 0 of 3 on day 11

Compound: CCOC(=O)c1cn(C)c2c1C(O)=C(C(=O)OC)CC(=O)N2
- T/C (dose: 900.0 mg/kg/injection, schedule: Q04DX004 (sc), vehicle: saline with Tween-80, evaluated on day 15): 131 % of control [5 of 6 alive on day 15]

Compound: Cc1[nH]c(=O)[nH]c(=O)c1N(CCF)CCCl
- survivor count (dose: 80.0 mg/kg/injection, schedule: Q01DX010 (sc), vehicle: Klucel (hydroxypropylcellulose) (HPC)): 0 of 3 on day 20

Compound: OCC1OC(n2cnc3c2NC=NC[C@H]3O)CC1O (some centres not stated)
- survivor count (dose: 4.0 mg/kg/injection, schedule: Q01DX010 (sc), vehicle: water): 0 of 3 on day 11
- survivor count (dose: 8.0 mg/kg/injection, schedule: Q01DX010 (sc), vehicle: water): 0 of 3 on day 11

Compound: CCN(CC)Cc1cc2[nH]c3c4ccc(Cl)cc4ncc3c2cc1OC
- T/C (dose: 75.0 mg/kg/injection, schedule: Q04DX004 (sc), vehicle: saline with Tween-80, evaluated on day 15): 130 % of control

Compound: C[CH2][Sn]([CH2]C)([CH2]C(=O)OC)[CH2]C(=O)OC
- T/C (dose: 6.25 mg/kg/injection, schedule: Q04DX004 (sc), vehicle: saline with Tween-80, evaluated on day 15): 134 % of control
- survivor count [1]: 2 of 6 on day 15
- survivor count [2]: 0 of 6 on day 15
- survivor count [3]: 0 of 6 on day 15
- survivor count [4]: 0 of 6 on day 15

Compound: O=C(O)C1CSCN1 (configuration not stated)
- survivor count (dose: 200.0 mg/kg/injection, schedule: Q01DX010 (sc), vehicle: water): 0 of 3 on day 11
- survivor count (dose: 400.0 mg/kg/injection, schedule: Q01DX010 (sc), vehicle: water): 0 of 3 on day 11

Compound: CO[C@H](/C(C)=C/C=C/C(C)=C/c1coc(C)n1)[C@H](C)[C@H]1C[C@@H](O)[C@@]2(C)O[C@H]2/C=C/[C@@H](C)[C@@H]2C[C@@H](CC(=O)O2)C[C@H]2O[C@@H]2C(=O)O1
- survivor count (dose: 1.0 mg/kg/injection, schedule: Q04DX004 (sc), vehicle: Klucel (hydroxypropylcellulose) (HPC)): 0 of 6 on day 15

Compound: COc1ccc(C(=O)C(CN(C)C)CN(C)C)cc1
- survivor count (dose: 50.0 mg/kg/injection, schedule: Q04DX004 (sc), vehicle: saline): 3 of 6 on day 15
- survivor count (dose: 100.0 mg/kg/injection, schedule: Q04DX004 (sc), vehicle: saline): 0 of 6 on day 15

Compound: C/C=C/c1cc2c(c(=O)o1)C(=O)[C@@H](O)[C@H](C)O2
- T/C (dose: 100.0 mg/kg/injection, schedule: Q04DX004 (sc), vehicle: saline with Tween-80, evaluated on day 15): 133 % of control
- survivor count [5]: 0 of 6 on day 15

Compound: COc1ccc(C(=O)/C(Br)=C/C(=O)O)cc1
- survivor count [6]: 1 of 3 on day 11

Compound: COC1N(C2CC(O)C(CO)O2)C(=O)NC(=O)C1(F)Br (configuration not stated)
- survivor count [7]: 0 of 3 on day 11
- survivor count [6]: 0 of 3 on day 11
- survivor count [8]: 0 of 3 on day 11

Compound: CCCCC1CCCCCCc2[nH]c(/C=C3\N=C(c4ccc[nH]4)C=C3OC)cc21 (configuration not stated)
- survivor count (dose: 32.0 mg/kg/injection, schedule: Q04DX004 (sc), vehicle: saline with Tween-80): 3 of 6 on day 15
- survivor count (dose: 64.0 mg/kg/injection, schedule: Q04DX004 (sc), vehicle: saline with Tween-80): 0 of 6 on day 15
- survivor count (dose: 128.0 mg/kg/injection, schedule: Q04DX004 (sc), vehicle: saline with Tween-80): 0 of 6 on day 15

Compound: COc1cc(C)c2c(c1C=O)Oc1c(c(C)c(O)c3c1C(O)OC3=O)OC2=O (configuration not stated)
- survivor count [6]: 0 of 3 on day 11
- survivor count [9]: 0 of 3 on day 11

Compound: O=C1C=C(C2OC(CO)C(O)C2O)C(=O)N1 (configuration not stated)
- survivor count [10]: 1 of 3 on day 11
- survivor count [7]: 0 of 3 on day 11

Compound: Nc1nc(=O)n(C2OC(CO)C(O)C2O)cc1F (configuration not stated)
- survivor count (dose: 2400.0 mg/kg/injection, schedule: Q04DX004 (sc), vehicle: saline): 0 of 5 on day 15

Compound: CN(C)C(=O)c1cccc(COc2ccc(N3C(N)=NC(N)=NC3(C)C)cc2Cl)c1
- survivor count (dose: 12.5 mg/kg/injection, schedule: Q01DX010 (sc), vehicle: saline): 1 of 3 on day 11
- survivor count [10]: 1 of 3 on day 11
- T/C (dose: 25.0 mg/kg/injection, schedule: Q01DX010 (sc), vehicle: water, evaluated on day 11): 132 % of control [2 of 3 alive on day 11]
- survivor count [7]: 0 of 3 on day 11
- survivor count (dose: 50.0 mg/kg/injection, schedule: Q01DX010 (sc), vehicle: water): 0 of 3 on day 11
- survivor count [6]: 0 of 3 on day 11
- survivor count (dose: 100.0 mg/kg/injection, schedule: Q01DX010 (sc), vehicle: water): 0 of 3 on day 11

Compound: COc1cc2cc3c4cc(OC)c(OC)cc4cc[n+]3c(C)c2cc1OC (tested in a mixture with another compound)
- survivor count [8]: 0 of 3 on day 11
- survivor count [9]: 0 of 3 on day 11

Compound: CC(=S)NC(O)C(=O)c1ccccc1 (configuration not stated)
- survivor count [4]: 3 of 6 on day 15
- survivor count (dose: 1200.0 mg/kg/injection, schedule: Q04DX004 (sc), vehicle: saline with Tween-80): 2 of 6 on day 15
- survivor count (dose: 2400.0 mg/kg/injection, schedule: Q04DX004 (sc), vehicle: saline with Tween-80): 0 of 6 on day 15

Compound: CCOC(=O)Nc1cc2c(c(N)n1)N=C(c1ccccc1)CN2
- survivor count (dose: 50.0 mg/kg/injection, schedule: Q04DX004 (sc), vehicle: saline with Tween-80): 2 of 6 on day 15
- survivor count (dose: 100.0 mg/kg/injection, schedule: Q04DX004 (sc), vehicle: saline with Tween-80): 2 of 6 on day 15

Compound: C=C1C(=O)OC2CC(C)C3C4OC4C(O)C3(C)C(O)C12 (configuration not stated)
- survivor count [5]: 1 of 6 on day 15

Compound: C=C(C)C(=NC(C)(C)C)Nc1ccccc1
- survivor count (dose: 200.0 mg/kg/injection, schedule: Q04DX004 (sc), vehicle: saline with Tween-80): 1 of 6 on day 15
- survivor count [5]: 1 of 6 on day 15
- survivor count (dose: 800.0 mg/kg/injection, schedule: Q04DX004 (sc), vehicle: saline with Tween-80): 0 of 6 on day 15

Compound: CC[C@](O)(C(=O)O)c1cc2n(c(=O)c1CO)Cc1cc3ccccc3nc1-2
- survivor count (dose: 62.5 mg/kg/injection, schedule: Q04DX004 (sc), vehicle: saline): 3 of 6 on day 15
- survivor count (dose: 125.0 mg/kg/injection, schedule: Q04DX004 (sc), vehicle: saline): 0 of 6 on day 15
- survivor count (dose: 250.0 mg/kg/injection, schedule: Q04DX004 (sc), vehicle: saline): 0 of 5 on day 15 and 0 of 6 on day 15

Compound: c1cc[c]([Sn][c]2ccccc2)cc1
- T/C (dose: 40.0 mg/kg/injection, schedule: Q01DX010 (sc), vehicle: saline, evaluated on day 11): 129 % of control
